In PubChem BioAssay AID662 (National Center for Advancing Translational Sciences (NCATS), 2007):
Several values for one entry are separate records, joined by “and”; a condition that tells them apart may be missing. Equal values may be shown once. The list shows a part of the results. Shown are side measurements of this screen, not its main read-out; they come without a call. Most of these compounds were active or inconclusive in the main read-out, so they are no random draw. Potencies come from curve fits of mixed quality, noted in brackets.

Assay: Cell signaling CRE-BLA (Fsk stim)
Details: CHO CRE-bla reporter (cAMP response element driving beta-lactamase), forskolin EC10, beta-lactamase ratio; measured here: 460 nm blue channel
Procedure, shortened: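 Modulation of forskolin-driven signalling is measured in CHO cells carrying a CRE-controlled beta-lactamase reporter. Cells are stimulated with EC10 NKH 477 in the presence of titrated compound for 3 h at 37 °C, then loaded with CCF4 for 2 h at room temperature.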

| Compound | AC50 |
| --- | --- |
| COc1cc2[nH]c(=O)n3nc(-c4ccccc4)nc3c2cc1OC | 0.00316 µM [falling, full curve, poor fit] |
| Cn1c(=O)n(C)c2cc(S(=O)(=O)NCc3ccccc3)ccc21 | 0.00316 µM [falling, full curve, poor fit] |
| CC(C)c1ccc(Cn2ccc3c4c(N)nc(NC5CC5)nc4ccc32)cc1 | 12.6 µM [rising, partial curve] |
| Cc1ccc(Cn2ccc(NC(=O)c3cc(-c4ccc(Br)cc4)on3)n2)cc1 | 0.0158 µM [rising, full curve] |
| O=C(Nc1ccccc1N1CCCCC1)c1cccs1 | 10 µM [rising, single point] |
| O=c1c(-c2cccc(Cl)c2)nc2cncnc2n1Cc1ccc(F)cc1 | 12.6 µM [rising, partial curve] |
| CCOc1cc(C2C(C#N)=C(N)Oc3n[nH]c(-c4ccccc4)c32)ccc1O (stereo unspecified) | 3.16 µM [rising, partial curve] |
| COCc1cc(C)nc(Nc2ccc(C)c(C)c2)c1C#N | 25.1 µM [rising, single point] |
| COc1ncc2nc(-c3ccccc3)c(=O)n(CCC#N)c2n1 | 10 µM [rising, partial curve] |
| C=CCn1c(=O)c2ccccc2n2c(SCC(=O)Nc3cc(C)on3)nnc12 | 12.6 µM [rising, single point] |
| Cc1cccc(C2c3c(n(C)c(=O)n(C)c3=O)N=C3c4ccccc4C(=O)C32)c1 (stereo unspecified) | 5.01 µM [rising, partial curve] |
| Cc1noc(NS(=O)(=O)c2ccc(N3CC(O)=C(c4ccccc4)C3=N)cc2)c1C | 3.98 µM [falling, single point] |
| COc1ccc2c(c1)sc1nc(-c3ccccc3)cn12 | 5.01 µM [falling, single point] |
| CCCCNc1c(C(=O)OCC)c(C)nc2c1cnn2CC | 5.01 µM [rising, partial curve] and 2 µM [rising, full curve] and 7.94 µM [falling, partial curve, poor fit] |
| Cc1nc2ccccc2nc1CSc1nncs1 | 12.6 µM [rising, partial curve] |
| COc1ccc(Oc2ncc3nc(C)c(=O)n(C)c3n2)cc1 | 12.6 µM [rising, single point] |
| CC1CCC(n2c(=S)[nH]c3ccccc3c2=O)CC1 (stereo unspecified) | 12.6 µM [rising, partial curve] |
| O=C(CCSc1nnc(-c2ccco2)o1)Nc1ccc(Cl)cc1 | 25.1 µM [falling, single point] |
| COc1ccc(CNc2ccnc(-c3ccoc3)n2)c(OC)c1 | 3.98 µM [rising, full curve, poor fit] |
| COc1ccc(N2CCN(S(=O)(=O)c3ccc(Br)s3)CC2)cc1 | 5.01 µM [falling, single point] |
| Cc1nc(SCC(=O)NCc2ccccc2)c2c(=O)n(C)c(=O)n(C)c2n1 | 10 µM [rising, partial curve] |
| CCOC(=O)c1ccccc1NC(=O)CN(c1cccc(OC)c1)S(C)(=O)=O | 1 µM [falling, single point] |

| Compound | AC50 |
| --- | --- |
| CCOc1ccc(N2C(=O)c3ccc(C(=O)OCc4c(C)noc4C)cc3C2=O)cc1 | 0.01 µM [falling, full curve, poor fit] |
| COc1cccc(-c2ccc3ncnc(N4CCNCC4)c3c2)c1 | 3.16 µM [rising, partial curve] |
| CCCCP(=O)(CCCC)c1ccccc1C(=O)O | 0.501 µM [falling, full curve] |
| CCOC(=O)C1CCCN(C(=O)c2cc3c(=O)n(C)c4ccccc4c3n2C)C1 (stereo unspecified) | 2 µM [rising, full curve, poor fit] |
| Cn1c(C(=O)N2CCCCCC2)cc2c(=O)n(C)c3ccccc3c21 | 3.16 µM [rising, full curve] |
| Cc1ccc(-c2csc(=S)n2CC(=O)OCC(=O)NCc2ccco2)cc1 | 3.16 µM [falling, partial curve] |
| CCOC(=O)CSC1=C(C#N)C(c2ccc(C)s2)CC(=O)N1 (stereo unspecified) | 15.8 µM [rising, single point] |
| Cc1ccccc1Cn1c(CN2CCN(c3ccc(F)cc3)CC2)nc2c1c(=O)n(C)c(=O)n2C | 7.94 µM [rising, partial curve] |
| CCOC(=O)/C(C#N)=C1/C=Cc2ccccc2N1CC | 15.8 µM [rising, partial curve] |
| CC(C)(C)S(=O)(=O)c1ccccc1C(=O)O | 25.1 µM [falling, single point] |
| COc1ccc(NC(=O)c2ccc3c(c2)n(C)c(=O)n3C)cc1 | 12.6 µM [rising, single point] |
| O=C(CSc1nnc2ccccn12)Nc1ccccc1C(=O)NC1CC1 | 15.8 µM [falling, single point] |
| COc1cc2c(C(=O)NC3CCCCCC3)cn(C)c(=O)c2cc1OC | 2 µM [rising, full curve] |
| Cc1ccc(-n2nc3c(c2NC(=O)c2c(-c4ccccc4Cl)noc2C)CSC3)cc1 | 12.6 µM [falling, single point] |
| Cc1cc(NC(=O)c2cnn3c(C(F)F)cc(-c4ccccc4)nc23)no1 | 3.98 µM [rising, single point] |
| COc1ccc(NC(=O)COn2nnc3ccc(Cl)cc32)cc1OC | 10 µM [rising, single point] |
| CCc1c(C(=O)Nc2ncn(Cc3cccc(C)c3)n2)csc1C | 0.00316 µM [falling, full curve, poor fit] |
| O=C(NCCC(=O)N1CCN(c2ncccn2)CC1)c1ccccc1 | 0.00316 µM [falling, full curve, poor fit] |
| N=c1oc2c3c4c(cc2cc1C(=O)Nc1ccccc1)CCCN4CCC3 | 1 µM [rising, partial curve] |
| CCn1c2c(c3cc(C(=O)O)ccc31)CCCC2=O | 12.6 µM [rising, single point] |
| CCc1ccc(C(=O)CSc2n[nH]c(C)n2)cc1 | 0.0158 µM [falling, full curve, poor fit] |
| CCOC(=O)c1ccccc1NC(=O)Cn1cnc2c(cnn2-c2ccccc2)c1=O | 25.1 µM [rising, single point] |

A section of the results above, as a working copy:

| Compound | AC50 |
| --- | --- |
| Cc1ccc(-c2csc(=S)n2CC(=O)OCC(=O)NCc2ccco2)cc1 | 3.16 µM [falling, partial curve] |
| CCOC(=O)CSC1=C(C#N)C(c2ccc(C)s2)CC(=O)N1 (stereo unspecified) | 15.8 µM [rising, single point] |
| Cc1ccccc1Cn1c(CN2CCN(c3ccc(F)cc3)CC2)nc2c1c(=O)n(C)c(=O)n2C | 7.94 µM [rising, partial curve] |
| CCOC(=O)/C(C#N)=C1/C=Cc2ccccc2N1CC | 15.8 µM [rising, partial curve] |
| CC(C)(C)S(=O)(=O)c1ccccc1C(=O)O | 25.1 µM [falling, single point] |
| COc1ccc(NC(=O)c2ccc3c(c2)n(C)c(=O)n3C)cc1 | 12.6 µM [rising, single point] |
| O=C(CSc1nnc2ccccn12)Nc1ccccc1C(=O)NC1CC1 | 15.8 µM [falling, single point] |
| COc1cc2c(C(=O)NC3CCCCCC3)cn(C)c(=O)c2cc1OC | 2 µM [rising, full curve] |
| Cc1ccc(-n2nc3c(c2NC(=O)c2c(-c4ccccc4Cl)noc2C)CSC3)cc1 | 12.6 µM [falling, single point] |
| Cc1cc(NC(=O)c2cnn3c(C(F)F)cc(-c4ccccc4)nc23)no1 | 3.98 µM [rising, single point] |
| COc1ccc(NC(=O)COn2nnc3ccc(Cl)cc32)cc1OC | 10 µM [rising, single point] |
| CCc1c(C(=O)Nc2ncn(Cc3cccc(C)c3)n2)csc1C | 0.00316 µM [falling, full curve, poor fit] |
| O=C(NCCC(=O)N1CCN(c2ncccn2)CC1)c1ccccc1 | 0.00316 µM [falling, full curve, poor fit] |
| N=c1oc2c3c4c(cc2cc1C(=O)Nc1ccccc1)CCCN4CCC3 | 1 µM [rising, partial curve] |
| CCn1c2c(c3cc(C(=O)O)ccc31)CCCC2=O | 12.6 µM [rising, single point] |
| CCc1ccc(C(=O)CSc2n[nH]c(C)n2)cc1 | 0.0158 µM [falling, full curve, poor fit] |

The results go on.

| Compound | AC50 |
| --- | --- |
| CCN(CC)c1ccc(NC(=O)c2ccc(Br)o2)cc1 | 0.398 µM [rising, partial curve] |
| Cc1cc(N2CCC(C)CC2)nc2ccc(N3C(=O)CCC3=O)cc12 | 0.0251 µM [falling, full curve, poor fit] |
| Cc1ccc(-c2nc(COC(=O)c3c(C)noc3C)cs2)cc1 | 31.6 µM [falling, partial curve] |
| Cc1ccc(-c2cc(-c3ccccc3Cl)[nH]n2)c(O)c1 | 10 µM [falling, partial curve] |
| CC(C)(Oc1ccc(Cl)cc1)C(=O)Nc1ccc2oc(-c3ccncc3)nc2c1 | 3.16 µM [rising, single point] |
| O=C(NCCc1ccccc1)C1CCCN1C(=O)Nc1ccc(F)cc1 (stereo unspecified) | 0.398 µM [falling, partial curve, poor fit] |
| COc1ccc(-n2c(=O)c(CCc3ccccc3)nc3cnc(N4CCNCC4)nc32)cc1 | 12.6 µM [rising, partial curve] |
| CN(C)C(=O)c1ccc(-c2nccc(NCc3cccnc3)n2)cc1 | 12.6 µM [rising, single point] |
| O=C(c1cc2nc(-c3ccccc3)cc(C(F)(F)F)n2n1)N1CCCC1 | 12.6 µM [rising, single point] |
| Cc1ccccc1-c1cc(Nc2ccc(F)cc2)ncn1 | 6.31 µM [rising, full curve, poor fit] |
| Cc1nc2ccccc2c2oc(C(=O)NCC3CCCO3)cc12 (stereo unspecified) | 2 µM [rising, full curve] |
| COc1ccccc1N1CCN(C(c2cccs2)C(C)NC(=O)c2cccs2)CC1 (stereo unspecified) | 25.1 µM [rising, single point] |
| CCOC(=O)C1CCCN(C(=O)c2cc3c(-c4cccc(OC)c4)nn(C)c3s2)C1 (stereo unspecified) | 2.51 µM [rising, full curve] |
| CCC(C(=O)NC1CCCC1)N(C(=O)Cn1nnc(-c2ccc(OC)c(OC)c2)n1)C1CCCCC1 (stereo unspecified) | 10 µM [rising, partial curve] |
| CCC1CCc2c(sc(NC(=O)c3ccoc3C)c2C(N)=O)C1 (stereo unspecified) | 12.6 µM [rising, partial curve] |
| COc1ccc(OC)c(-c2cc(C(=O)NCc3ccco3)no2)c1 | 10 µM [rising, partial curve] |
| O=C1c2ccccc2C(=O)N1CCCC(=O)N1CCc2ccccc21 | 0.251 µM [rising, partial curve, poor fit] |
| Cc1noc(C)c1COc1cccc(C(=O)OCC(=O)N2CC(=O)Nc3ccccc32)c1 | 3.16 µM [rising, single point] |
| CC(C)(Sc1ccc(CCN(CCCCC2CCCCC2)C(=O)NC2CCCCC2)cc1)C(=O)O | 25.1 µM [falling, partial curve, poor fit] and 20 µM [falling, partial curve] |
| COc1ccc(C)c(Cn2c(-c3nonc3N)nc3ccccc32)c1 | 2.51 µM [rising, full curve] |
| CCOC(=O)c1cccc(NC(=O)CSc2nnc(C3CCCCC3)n2CC)c1 | 0.00316 µM [falling, full curve, poor fit] |
| C=CCn1c(-c2cccs2)nc2nc3ccccc3nc21 | 10 µM [rising, partial curve] |
